## Results of single-concentration screens

The chains behind the UniProt entries cited, without tags or fusion partners. Residues count along the entry.
UniProt P9WPC5, whole entry: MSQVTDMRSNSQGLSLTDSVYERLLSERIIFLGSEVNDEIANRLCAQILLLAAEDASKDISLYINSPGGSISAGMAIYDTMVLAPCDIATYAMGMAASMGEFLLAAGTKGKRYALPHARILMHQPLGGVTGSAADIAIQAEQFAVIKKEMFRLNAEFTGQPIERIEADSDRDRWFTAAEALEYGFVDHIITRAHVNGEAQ
UniProt P9WPC3, whole entry partner: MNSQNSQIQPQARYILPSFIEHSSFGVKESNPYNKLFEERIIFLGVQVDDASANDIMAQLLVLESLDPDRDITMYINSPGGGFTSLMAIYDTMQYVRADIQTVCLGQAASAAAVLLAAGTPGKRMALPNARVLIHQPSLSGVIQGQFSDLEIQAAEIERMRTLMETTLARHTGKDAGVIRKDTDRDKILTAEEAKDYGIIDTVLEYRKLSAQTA
UniProt A4I591, 1-473: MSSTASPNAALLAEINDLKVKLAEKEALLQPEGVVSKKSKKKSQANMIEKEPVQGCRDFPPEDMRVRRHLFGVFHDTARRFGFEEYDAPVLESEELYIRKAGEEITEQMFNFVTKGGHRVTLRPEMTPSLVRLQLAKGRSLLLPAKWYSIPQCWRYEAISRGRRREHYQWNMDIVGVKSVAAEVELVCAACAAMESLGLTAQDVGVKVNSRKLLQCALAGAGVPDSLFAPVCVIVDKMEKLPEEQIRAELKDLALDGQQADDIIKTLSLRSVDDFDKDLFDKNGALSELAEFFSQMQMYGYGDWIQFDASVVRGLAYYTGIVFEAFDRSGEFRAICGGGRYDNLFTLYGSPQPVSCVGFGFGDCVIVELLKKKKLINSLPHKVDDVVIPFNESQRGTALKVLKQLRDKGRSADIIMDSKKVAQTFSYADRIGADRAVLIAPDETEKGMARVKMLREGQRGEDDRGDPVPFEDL

The values are deposited in ChEMBL (CHEMBL3988442, “University of Dundee, Small-Polar-MMV Screening Library” (2021)).

A: 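ClpP1P2, Mycobacterium tuberculosis (UniProt P9WPC5 and UniProt P9WPC3). Protease assay of ClpP1P2, read by the AMC dye that it sets free. Tested at 50 µM. Direction is inferred from only a few compounds that gave an IC50; most scored high, so higher reads as stronger inhibition. Most other retested compounds had strongly negative values. Size under these conditions: about 69,000 compounds, about 10 of them at 50% or above in at least one test.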
B: 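Histidine-tRNA ligase, Leishmania infantum (UniProt A4I591). Enzyme assay of histidyl-tRNA synthetase; the read-out is not stated. Tested at 30 µM. The record gives no direction; compounds that gave an IC50 in retests scored well above the rest, so higher reads as stronger inhibition. The assay is labelled LdHisRS but filed under L. infantum. About 69,000 compounds were tested under these conditions; 0.6% (about 410) showed 50% or more at least once.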

Values are the deposited “Percent Effect”, in %.
How 0% and 100% were set is not recorded. Most values in the screen are low, and negative values occur.
This is an unselected part of the compounds tested.

Compound,A,B
CC(C)c1ccc(/C=C/CC(=O)NC2CCN(C(N)=O)C2)cc1 (centres unmarked),-3.958,11.76
CN1CCO[C@@H]2CN(S(=O)(=O)c3ccccc3F)CC[C@@H]2C1,-1.725,17.95
CCc1nc(C)c(C(C)N(C)CCOC)s1 (centres unmarked),3.453,14.29
Cn1cc(-c2cc(C(F)(F)F)n(CCCN)n2)cn1,11.45,22.68
CCCNC(=O)CN1CCOC(CC)C1 (centres unmarked),-4,9.524
COCCN1C(=O)CO[C@H]2CN(Cc3ccccc3Cl)C[C@@H]21,-5.307,14.43
COCc1cncc2c1CCN(C(=O)c1ccsc1)C2,1.591,2.703
Cc1cn2c(CN(C)C(=O)c3ncoc3C)c(C)nc2s1,-0.2045,8.219
CC(=O)N1CCCC(C(=O)N2Cc3nc(C)n(C)c(=O)c3C2)C1 (centres unmarked),0.6202,12.5
Cc1ccsc1[C@@H]1CCN(C(=O)c2ccc(-c3cc[nH]n3)cc2)C[C@H]1O,-2.587,12.9
COC(=O)CCCC(=O)N1CCC(CO)(CCc2ccccc2)CC1,-10.19,1.099
COc1ccc(NC2CCN(C3CC3)C2=O)cn1 (centres unmarked),-10.62,25.81
CC(C)N1CCC(N2CCCC(C(=O)NCC3(C)COC3)C2)CC1 (centres unmarked),-7.193,6.452
Cc1csc(C2CCCN(C(=O)Cn3ccccc3=O)C2)n1 (centres unmarked),-4.89,5.455
CC(C)Cn1cc(NC(=O)c2cccc(N(C)C)c2)cn1,-8.755,6.202
CCS(=O)(=O)N1CCC(c2nnc(C3CC3)o2)CC1,-5.806,11.86
COCCN1CCC2(CC1)CC(c1cccnc1)C(=O)N2C (centres unmarked),-16.73,9.434
Cc1nccn1C1CCCN(C(=O)c2ccc3c(c2)NC(=O)CO3)C1 (centres unmarked),7.994,45.24
CCn1ncc2c1C(COCC1CC1)CN(C(=O)c1cccs1)C2 (centres unmarked),0.517,13.33
CN(C)c1ccc(C(=O)NCC2(c3ccccc3)CCOCC2)cc1,14.66,22.86
O=C(NCCCn1cccn1)C1CCC(=O)N(CC2CCCCC2)C1 (centres unmarked),-16.42,2.4
CCNc1ncc(C2CC(=O)Nc3c2cnn3Cc2ccncc2)cn1 (centres unmarked),-5.648,13.7
Cc1nc(C2CCCN(C(=O)c3cc(Cl)c[nH]3)C2)no1 (centres unmarked),6.755,19.1
c1ccc2c(N3CCCCC3Cn3cncn3)ncnc2c1 (centres unmarked),-20.72,14.56
CC(C)NC(=O)Nc1ccc(CNCc2ccc(OC(F)F)cc2)cc1,-11.7,13.68
NC(=O)CN1CCOCC(Cc2ccccc2Cl)C1 (centres unmarked),-6.592,10
Cc1cc(-c2ccc(=O)n(CCNC(=O)C3CCCCC3)n2)c(C)o1,-11.57,8.054
CN(C)CC(=O)N1CCC2(CC1)CN(Cc1ccccc1)C2,-2.61,15.38
CCc1cc(CN(Cc2cccnc2)C2CN3CCC2CC3)on1 (centres unmarked),-15.33,14.52
CC(C)(C)OC(=O)Cn1cccc(S(=O)(=O)N2CCCC2)c1=O,-0.9451,14.88
c1cnn(CC2CN(Cc3nc(-c4ccsc4)no3)CCO2)c1 (centres unmarked),10.41,8.8
Cc1ccc2c(n1)N(CCN(C)C)CCN(C(=O)c1ccc[nH]1)C2,18.52,8.029
CN(C)C(=O)c1n[nH]c2c1CN(CC1CCCCC1)C2,-1.497,11.32
CCN(Cc1ccc2c(c1)OCO2)C(=O)CCc1c(C)nc(C)[nH]c1=O,1.914,16.8
CN(C)C(CNC(=O)c1ccnc(-n2cncn2)c1)c1ccccc1 (centres unmarked),9.658,28
Cc1ccn2ncc(C(=O)N3CCCC(c4noc(C)n4)C3)c2n1 (centres unmarked),-7.071,8.264
COc1ccc2[nH]cc(C(=O)CNc3nc(C)cs3)c2c1,-26.09,12.5
CC(Oc1ccc2c(c1)OCO2)C(=O)N1CCC(c2ncc[nH]2)CC1 (centres unmarked),-14.59,3.333
Cn1ncc(C(=O)N2CCN(CCS(C)(=O)=O)CC2)c1Cl,-6.137,-3.448
CN(C)C(=O)CO[C@H]1CO[C@@]2(CCN(Cc3ccsc3)C2)C1,5.697,2
CCC[C@@H]1CN(Cc2ccc(C(F)(F)F)nc2)C[C@H]1NS(C)(=O)=O,-2.202,4.651
Cc1cnc(N2CCOC3(COCCN(c4nccs4)C3)C2)nc1 (centres unmarked),-8.24,24
N#Cc1cccc(CNc2cc(CO)ccc2Cl)c1,-17.73,4.8
Cc1ccccc1-c1noc(CN2CCn3c(nnc3C3CC3)C2)n1,6.062,2.128
COc1cccc(CN2CC(O)CN(C(=O)C3CCC3)CC2=O)c1OC (centres unmarked),12.24,16.33
Cn1ncc2c1C(COCC1CC1)CN(CC1CC1)C2 (centres unmarked),-4.53,17.65
COc1ccc(C(=O)Nc2n[nH]c(C3CCCO3)n2)cc1 (centres unmarked),-2.53,18.68
CC(CC(=O)Nc1ccc(C(=O)N(C)C)c(Cl)c1)n1cccc1 (centres unmarked),-8.024,13.09
O=C(c1cnn2c(-c3ccco3)ccnc12)N1CCCCCC1,-289.1,25.66
CC(C)CCN1CCC2(CCCN(c3nncs3)C2)C1 (centres unmarked),3.635,14.47
COCc1c(Cl)cccc1NC(=O)CNC(=O)C(C)(C)C,-1.221,17.33
O=C(c1csc(-c2cccs2)n1)N1CCCC1Cn1cccn1 (centres unmarked),-4.154,13.64
COc1c(C(=O)N2CCNC(=O)C2)cnc2c1c(C)nn2C,-6.763,-7.921
COCCC(=O)N1CCC2(CCN(Cc3cccc(F)c3)CC2)C1,-7.671,11
Cc1oncc1C(=O)NCc1cc(=O)n2c(n1)CN(CC1CC1)CCC2,6.744,-7.965
Cc1nsc(N2CCN(CC(=O)N(C3CC3)C(C)C3CC3)CC2)n1 (centres unmarked),-9.74,8.85
CN(C)CC(=O)N1CCC2(CC1)COc1ccccc1S(=O)(=O)N(C)C2,-1.99,13.89
CCc1nc(CNc2ccc(C(=O)N3CCSCC3)cc2C)no1,-4.143,10.43
Fc1cccc(-c2nc(CN3CCn4c(nnc4C4CC4)C3)co2)c1,-0.9206,17.57
Brc1ccc(C2(NCc3noc(C4CC4)n3)CCC2)cc1,-18.94,10.96
c1nc(CCC2CCCCN2)cc(N2CCCC2)n1 (centres unmarked),4.7,7.292
CCc1nc(CCNC(=O)Nc2cc(C(N)=O)ccc2OC)cs1,4.366,20.54
C[S+]([O-])c1ccc(CNc2ccc(F)cc2OC(F)F)cc1 (centres unmarked),-9.465,-6.849
Cn1cc(CN2CCC(c3[nH]ncc3S(C)(=O)=O)C2)cn1 (centres unmarked),5.168,21.74
Cc1nn(C)c2nc(NC(C)c3n[nH]c(=O)[nH]3)sc12 (centres unmarked),-12.69,6.993
N#Cc1cc(NC(=O)c2ccccn2)ccc1N1CCC(O)CC1,-7.156,26.03
O=C1CC(c2ccccc2)C2(CCN(C(=O)c3ccncc3F)CC2)N1 (centres unmarked),-3.577,-44.12
Cc1ccc(N(CCC#N)C(=O)CN2CCCC2c2cccs2)cc1 (centres unmarked),-12.18,19.05
Cc1ccccc1-c1cc(C(=O)NCCN2CCCS2(=O)=O)[nH]n1,16.24,21.28
CN(CC1(O)CCCN(CCC2CCCCC2)C1=O)C1CCOCC1 (centres unmarked),-12.41,18.45
O=C1O[C@@H]2CN(Cc3cccnc3)C[C@@H]2N1CCCN1CCOCC1,6.847,25
O=C(COc1cccc2c1CCC2=O)NCCc1cccs1,5.539,16.96
CC(C)Oc1ncc(C(=O)N2CCC(CC(N)=O)CC2)cc1Cl,-22.07,16
N#Cc1ccccc1CN1CCc2sccc2C1,4.44,16.42

Repeated from the top, 6 entries:

| Compound | A | B |
|---|---|---|
| `CC(C)c1ccc(/C=C/CC(=O)NC2CCN(C(N)=O)C2)cc1` (centres unmarked) | -3.958 | 11.76 |
| `CN1CCO[C@@H]2CN(S(=O)(=O)c3ccccc3F)CC[C@@H]2C1` | -1.725 | 17.95 |
| `CCc1nc(C)c(C(C)N(C)CCOC)s1` (centres unmarked) | 3.453 | 14.29 |
| `Cn1cc(-c2cc(C(F)(F)F)n(CCCN)n2)cn1` | 11.45 | 22.68 |
| `CCCNC(=O)CN1CCOC(CC)C1` (centres unmarked) | -4 | 9.524 |
| `COCCN1C(=O)CO[C@H]2CN(Cc3ccccc3Cl)C[C@@H]21` | -5.307 | 14.43 |